Source: BigSolDB 2.1

COc1ccc2cc([C@H](C)C(=O)O)ccc2c1
solubility (mole fraction)
Conditions	293.2 K	298.2 K	303.2 K	308.2 K	313.2 K
in ethanol	0.0124	0.0149	0.0198	0.0232	0.0284
in propylene glycol	0.00614	0.00726	0.00861	0.0106	0.0125
in water	4.36e-06	5.13e-06	5.91e-06	6.6e-06	7.68e-06
